Laboratory results from paper PMC6950750, “Newly Discovered Action of HpTx3 from Venom of Heteropoda venatoria on Nav1.7 and Its Pharmacological Implications in Analgesia” (Toxins, 2019).

System: C57BL/6 mice, acetic acid-induced writhing model
Type: in vivo, mouse (C57BL/6)
Conditions: morphine 1 mg/kg i.p.; 30 min; control 40.3; n = 8
Description: Healthy female C57BL/6 mice (weighting 18–20 g) that were used for analgesic activity assay were obtained from the Experimental Animal Center of SLac-kinda (Changsha, China) and were randomly assigned to five groups, each group generally containing 8 mice. […] The mice were maintained at a temperature of 20–25 °C and under a 12 h light/12 h dark cycle, with free access to food and water. The ethical approval for the in vivo animal experiments was obtained from the Animal Care and Use Committee of the Hunan Province Animal Management Office. (The approval code: 219/2019).

CN1CC[C@]23c4c5ccc(O)c4O[C@H]2[C@@H](O)C=C[C@H]3[C@H]1C5 [morphine]
average abdominal writhing number: 16.8
